In PubChem BioAssay AID504467 (National Center for Advancing Translational Sciences (NCATS), 2011):
Screen size: about 330,000 compounds; about 7,700 (2.3%) were called active. This list was built around the results that the source calls inconclusive (neither active nor inactive); the mix of calls is not that of the screen. Calls follow the shape of the dose curve; as a rule, active = well fitted inhibition curve with a large enough effect; inconclusive = small, poorly fitted or top-dose-only effect, or effect the other way; inactive = flat fitted curve, though single readings scatter. A potency beside an inconclusive call is a rough fit, not a confirmed value.

Test: qHTS screen for small molecules that inhibit ELG1-dependent DNA repair in human embryonic kidney (HEK293T) cells expressing luciferase-tagged ELG1; also: nearly all actives have a fitted effect of over 55% in size
Conditions: HEK293T ELG1-luciferase reporter, luminescence, 16 h, DNA damage induced by 5-fluorouridine; activity change, negative = inhibition: at 46.1 µM (top of the series)
In short: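 Overnight (16 hr) co-exposure of 2,000 cells/well to 5-fluorouridine and compound at 37 °C preceded detection. Luciferase was quantified via ONE-Glo luminescence; loss of signal denotes inhibition.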
% is scaled to controls: 0 for no effect and ±100 for the full control effect; potency is read from the fitted curve at half-maximal effect.

**Q.** For `O=c1[nH]cnc2c1C1(CCCC1)Cc1ccccc1-2`, which “activity change, negative = inhibition” value is on record?
**A.** inactive: 9.6%

**Q.** With `CCOC(=O)C(C)Sc1ncnc2c1nnn2-c1ccc(F)cc1` (configuration not stated) as the compound, how does the Potency read?
**A.** inconclusive: 16.4 µM [activator, single point]

**Q.** Which “activity change, negative = inhibition” value does the source give for `CCc1nnc(NC(=O)CSc2nc(C)cs2)s1` here?
**A.** inactive: -11.9%

**Q.** For `COc1ccc2c(CC(=O)Nc3ncc(C)s3)coc2c1`, which Potency is on record?
**A.** inconclusive: 2.91 µM [activator, full curve]

**Q.** With `Cc1c(CCC(=O)NCCCCCC(=O)O)c(=O)oc2cc3occ(-c4ccccc4)c3cc12` as the compound, how does the “activity change, negative = inhibition” value read?
**A.** inactive: 6.64%

**Q.** For `Cc1cc(-c2ccc(C)c(S(=O)(=O)NCCCN3CCN(c4ccccc4)CC3)c2)on1`, which Potency is on record?
**A.** inconclusive: 7.3 µM [inhibitor, partial curve, poor fit]

**Q.** For `COCc1cc(=O)n2[nH]c(-c3ccc(C)cc3)cc2n1`, which Potency is on record?
**A.** inconclusive: 20.6 µM [activator, partial curve]

**Q.** With `Cc1cc(OCC(=O)NCCCn2ccnc2)c2c(C)c(C)c(=O)oc2c1` as the compound, how does the Potency read?
**A.** inconclusive: 23.1 µM [activator, single point]

**Q.** With `N#Cc1c(NC(=O)c2cccnc2)sc2c1CCC2` as the compound, how does the Potency read?
**A.** inconclusive: 18.4 µM [activator, partial curve, poor fit]

**Q.** With `O=[N+]([O-])c1cccc(/C=N/N2CCN(Cc3ccccc3)CC2)c1` as the compound, how does the Potency read?
**A.** inconclusive: 29.1 µM [activator, single point]

**Q.** Which Potency does the source give for `Cc1cccc(NC(=S)NCc2ccc3c(c2)cc(C)n3C)c1C` here?
**A.** active: 25.9 µM

**Q.** For `CN(C)c1ccc(/C=N/NC(=O)c2nnn(-c3nonc3N)c2CN(C)c2ccccc2)cc1`, which Potency is on record?
**A.** inconclusive: 29.1 µM [activator, single point]

**Q.** For `COc1cc(-c2nc(CN3CCN(CC(C)C)C(=O)[C@@H]3C)c(C)o2)ccc1F`, which Potency is on record?
**A.** inconclusive: 20.6 µM [inhibitor, single point]

**Q.** For `CNc1c([N+](=O)[O-])cnn1-c1ccccc1F`, which Potency is on record?
**A.** inconclusive: 29.1 µM [activator, partial curve, poor fit]

**Q.** Which Potency does the source give for `Cc1cccc(-c2cc(N)n(-c3ccccc3)n2)c1` here?
**A.** inconclusive: 6.51 µM [activator, partial curve]

**Q.** With `COc1cccc(NC(=O)CNC(=O)c2cccs2)c1` as the compound, how does the Potency read?
**A.** inconclusive: 14.6 µM [activator, partial curve]

**Q.** Which “activity change, negative = inhibition” value does the source give for `CCc1nnc(NC(=O)CSc2nc(-c3ccccc3)cc(-c3ccc(OC)cc3)c2C#N)s1` here?
**A.** inactive: 14.5%

**Q.** With `CC(=O)c1cccc(NC(=O)c2csc3c2CCCCC3)c1` as the compound, how does the “activity change, negative = inhibition” value read?
**A.** inactive: -15.7%

**Q.** Which Potency does the source give for `COc1ccccc1N1CC(C(=O)Nc2cccc(C(=O)O)c2)CC1=O` (configuration not stated) here?
**A.** inconclusive: 1.16 µM [activator, single point]

**Q.** For `CCOC(=O)C1=C(C)NC(=S)N(C(C)=O)C1c1ccccc1` (configuration not stated), which Potency is on record?
**A.** inconclusive: 23.1 µM [inhibitor, single point]

**Q.** Which “activity change, negative = inhibition” value does the source give for `Cc1cc(C)c(NC(=S)N(C)C)cc1C` here?
**A.** inactive: -28.2%

**Q.** With `CCN1C(=O)/C(=C/c2cccs2)SC1=Nc1ccc(OC)cc1` as the compound, how does the “activity change, negative = inhibition” value read?
**A.** inactive: 2.87%

**Q.** With `Cc1ccc(C)c(S(=O)(=O)N2CCCOC2CNC(=O)C(=O)NCc2ccncc2)c1` (configuration not stated) as the compound, how does the “activity change, negative = inhibition” value read?
**A.** inactive: -3.93%

**Q.** Which Potency does the source give for `CCC(C)Sc1cccc(-c2nc3cc(C)ccn3c2NCc2ccccc2)c1` (configuration not stated) here?
**A.** inconclusive: 35.5 µM [inhibitor, single point]

**Q.** With `Cc1nc(NC(=S)Nc2ccccc2)sc1C` as the compound, how does the Potency read?
**A.** inconclusive: 3.26 µM [activator, full curve]

**Q.** With `COc1cc(/C=C/C(=O)N(Cc2ccccc2)c2ccccn2)cc(OC)c1OC` as the compound, how does the Potency read?
**A.** inconclusive: 18.4 µM [inhibitor, single point]

**Q.** For `Cc1ccc(-n2ncc3c(NNC(=O)c4ccco4)ncnc32)cc1C`, which Potency is on record?
**A.** inconclusive: 20.6 µM [activator, partial curve]

**Q.** Which Potency does the source give for `O=C(O)COc1ccccc1/C=N/NC(=O)c1cc(-c2ccc(F)cc2)nc2ccccc12` here?
**A.** inconclusive: 20.6 µM [activator, partial curve, poor fit]

**Q.** For `CCCCn1c(-c2cccs2)nc2nc3ccccc3nc21`, which Potency is on record?
**A.** inconclusive: 20 µM [inhibitor, single point]

**Q.** Which “activity change, negative = inhibition” value does the source give for `C#Cc1ccc(CN2CCC(Oc3ccc(C(=O)NCc4ccccn4)cc3)CC2)cc1` here?
**A.** inactive: -26.5%

**Q.** For `CCOc1ncccc1C(=O)Nc1cccc(S(=O)(=O)N2CCCCC2)c1`, which Potency is on record?
**A.** active: 11.2 µM

**Q.** With `Cc1nc(NC(=O)/C=C/c2ccccc2)n[nH]1` as the compound, how does the Potency read?
**A.** inconclusive: 29.1 µM [inhibitor, single point]

**Q.** Which “activity change, negative = inhibition” value does the source give for `CCOC(=O)c1sc(NC(=O)CSc2ncn[nH]2)c(C#N)c1C` here?
**A.** inactive: -13%

**Q.** Which Potency does the source give for `COc1cc(OC)c(OC)cc1/C=N/Nc1ncnc2c1[nH]c1ccccc12` here?
**A.** inconclusive: 4.61 µM [inhibitor, single point]

**Q.** For `COC(=O)C1(Cc2cc(-c3cccnc3)no2)CCN(C(=O)OC(C)(C)C)CC1`, which Potency is on record?
**A.** inconclusive: 8.2 µM [inhibitor, single point]

**Q.** With `CNS(=O)(=O)c1cc2c3c(cccc3c1)C(=O)NC2=O` as the compound, how does the Potency read?
**A.** inconclusive: 18.3 µM [inhibitor, partial curve]

**Q.** Which Potency does the source give for `COc1ccc(C2=NS(=O)(=O)N(C)C(C(=O)NC(C)c3ccccc3)=C2)cc1OC` (configuration not stated) here?
**A.** inconclusive: 23.1 µM [inhibitor, single point]

**Q.** Which Potency does the source give for `CCc1cc[n+](C2=C([O-])c3ccccc3C(=O)/C2=N\S(=O)(=O)c2cccs2)cc1` here?
**A.** active: 16.4 µM

**Q.** With `O=C1CCCC2=C1C1(CCCCC1)N=C(Nc1nc3ccccc3o1)N2` as the compound, how does the “activity change, negative = inhibition” value read?
**A.** inactive: -12.8%

**Q.** For `CCc1ccc(C(=O)OCC(=O)N2CCCCCC2)cc1`, which Potency is on record?
**A.** inconclusive: 20.6 µM [activator, single point]

**Q.** For `Cc1cc(-c2nnc(SCc3ccccn3)o2)no1`, which Potency is on record?
**A.** inconclusive: 29.1 µM [activator, single point]

**Q.** Which Potency does the source give for `CCc1ccc(S(=O)(=O)Nc2cccc(-c3ccc4nncn4n3)c2)s1` here?
**A.** inconclusive: 23.1 µM [inhibitor, single point]

**Q.** With `O=C(Cn1cccc1C(=O)c1ccccc1)NCc1cccc(Cl)c1` as the compound, how does the Potency read?
**A.** inconclusive: 10.3 µM [activator, partial curve, poor fit]

**Q.** For `CCn1nc(C(C)C)cc1C(=O)N1CCCC(CO)(Cc2ccc(F)cc2F)C1` (configuration not stated), which Potency is on record?
**A.** inconclusive: 13 µM [inhibitor, partial curve, poor fit]

**Q.** For `CCc1cc2c(=O)c(-c3nc4ccccc4n3C)c(COCC(=O)O)oc2cc1O`, which “activity change, negative = inhibition” value is on record?
**A.** inactive: 12.5%

**Q.** For `Cc1cc(C)n(C(=O)COc2ccccc2[N+](=O)[O-])n1`, which Potency is on record?
**A.** inconclusive: 6.51 µM [inhibitor, single point]

**Q.** With `COc1cccc(NC(=S)N2CCn3cccc3C2c2cccnc2)c1` (configuration not stated) as the compound, how does the “activity change, negative = inhibition” value read?
**A.** inactive: -7.89%

**Q.** With `COc1cc2c(cc1OC)C(c1cccc(C)c1)CC(=O)N2` (configuration not stated) as the compound, how does the “activity change, negative = inhibition” value read?
**A.** inactive: 7.12%

**Q.** Which Potency does the source give for `CCOc1cccc(=O)c2c(C)n(CC(=O)c3ccccc3)c(C)c12` here?
**A.** inconclusive: 18.3 µM [inhibitor, partial curve, poor fit]

**Q.** With `O=c1[nH]n(-c2cccc(Cl)c2)c2ncccc12` as the compound, how does the Potency read?
**A.** inconclusive: 14.1 µM [activator, single point]

**Q.** With `CCOc1ccc2[nH]cc(S(=O)(=O)c3ccc(C)cc3)c(=O)c2c1` as the compound, how does the Potency read?
**A.** active: 16.4 µM

**Q.** For `Cc1ccccc1Nc1nc2ccccc2s1`, which Potency is on record?
**A.** inconclusive: 5.8 µM [activator, partial curve]

**Q.** For `CN(Cc1ccccc1)S(=O)(=O)CCNC(=O)c1ccc2c(c1)OCO2`, which “activity change, negative = inhibition” value is on record?
**A.** inactive: 8.26%

**Q.** For `COc1ccc2cc(CCNC(=O)C(C)C)c(=O)[nH]c2c1`, which Potency is on record?
**A.** inconclusive: 16.4 µM [activator, single point]

**Q.** Which Potency does the source give for `Nc1cc(-c2ccc(Br)cc2)nn1S(=O)(=O)c1cccc2nsnc12` here?
**A.** inconclusive: 29.1 µM [inhibitor, single point]

**Q.** For `COc1cccc(OC)c1C(=O)OCC(=O)NCc1ccco1`, which “activity change, negative = inhibition” value is on record?
**A.** inactive: 4.59%

**Q.** For `COc1cc(NC(=O)C2CC(c3cccc(OC)c3OC)=NO2)cc(OC)c1OC` (configuration not stated), which Potency is on record?
**A.** active: 11.6 µM

**Q.** For `O=C(O)CSc1nc2ccc(Cl)cc2[nH]1`, which Potency is on record?
**A.** inconclusive: 16.4 µM [activator, single point]

**Q.** For `CCN(C(=O)C(C)N1C(=O)/C(=C/c2ccco2)SC1=S)C1CCS(=O)(=O)C1` (configuration not stated), which “activity change, negative = inhibition” value is on record?
**A.** inactive: -0.34%

**Q.** For `COc1ccc(-c2sc3cc(OC)ccc3c2-c2ccc(OCCN3CCOCC3)cc2)cc1`, which “activity change, negative = inhibition” value is on record?
**A.** inactive: -16.6%

**Q.** For `CC(C)CSc1nsc(N)n1`, which Potency is on record?
**A.** inconclusive: 18.4 µM [activator, partial curve]

**Q.** For `Cc1ccccc1NC(=O)NCc1ccco1`, which Potency is on record?
**A.** inconclusive: 7.31 µM [activator, partial curve]

**Q.** For `Cc1cccc(C(=O)Nc2ccc3c(c2)nc(C)n3C)c1`, which Potency is on record?
**A.** inconclusive: 1.83 µM [activator, full curve]

**Q.** With `CCCOC1CCCN(C(=O)c2ccc(OC3CCN(Cc4ccccn4)CC3)cc2)C1` (configuration not stated) as the compound, how does the Potency read?
**A.** inconclusive: 3.26 µM [inhibitor, single point]

**Q.** For `Cc1cc(C)c(S(=O)(=O)Nc2cccc(S(=O)(=O)NC3=NCCC3)c2)c(C)c1`, which “activity change, negative = inhibition” value is on record?
**A.** inactive: 2.38%

**Q.** Which Potency does the source give for `COC(=O)C1=CO[C@@H](O[C@@H]2O[C@H](CO)[C@@H](O)[C@H](O)[C@H]2O)[C@H]2[C@@H]1C(=O)C[C@@H]2C` here?
**A.** inconclusive: 5.8 µM [activator, full curve, poor fit]

**Q.** Which Potency does the source give for `N#Cc1cc2c(cc1NC(=O)CCn1cnnn1)OCO2` here?
**A.** inconclusive: 29.1 µM [activator, partial curve, poor fit]

**Q.** For `Cn1ccnc1SCC(=O)c1cc2ccccc2o1`, which Potency is on record?
**A.** inconclusive: 16.4 µM [activator, partial curve]

**Q.** Which “activity change, negative = inhibition” value does the source give for `Cc1ccc2[nH]c(=O)c(CN(Cc3cccs3)C(=S)NCC3CCCO3)cc2c1` (configuration not stated) here?
**A.** inactive: -22.7%

**Q.** Which Potency does the source give for `Cc1cc(N)n2ncc(-c3ccc(F)cc3)c2n1` here?
**A.** inconclusive: 16.4 µM [activator, partial curve]

**Q.** With `O=C(NC1CC1)c1ccc(-c2ccccc2)cc1` as the compound, how does the Potency read?
**A.** inconclusive: 18.3 µM [activator, partial curve]

**Q.** With `O=C(/C=C/c1ccccc1)c1ccoc1` as the compound, how does the Potency read?
**A.** inconclusive: 0.461 µM [activator, full curve, poor fit]
